Data set [1] addresses p65 (RelA) homodimer (mouse (MEF, WT)) (UniProt Q04207). Nature of the data set: EMSA. As to conditions: PMA plus U0126 (3 uM) pretreatment of cells, binding not affected; 50 mM NaCl, 30 mM KCl, 10 mM Tris-HCl pH 7.5, 1 mM EDTA, 1 mM DTT, 10% glycerol, 1 ug poly(dI-dC), 5 ug nuclear protein, 0.025 pmol probe; protein in an extract; label: 32P (radiolabeled).
Data set [2] has the same target. Nature of the data set: EMSA supershift. As to conditions: PMA-treated WT MEF nuclear extract, Complex 1; 50 mM NaCl, 30 mM KCl, 10 mM Tris-HCl pH 7.5, 1 mM EDTA, 1 mM DTT, 10% glycerol, 1 ug poly(dI-dC), 5 ug nuclear protein, 0.025 pmol probe; protein in an extract; label: 32P (radiolabeled).
Data set [3] has the same target. Nature of the data set: competition with a labelled probe. As to conditions: 1 pmol cold competitor vs 0.025 pmol N1 probe, Complex 1 stated specific to NF-kB; 50 mM NaCl, 30 mM KCl, 10 mM Tris-HCl pH 7.5, 1 mM EDTA, 1 mM DTT, 10% glycerol, 1 ug poly(dI-dC), 5 ug nuclear protein, 0.025 pmol probe; protein in an extract; label: none (cold competitor).

Amino acid sequences for entries named in this document (tags omitted).
UniProt Q04207, whole entry: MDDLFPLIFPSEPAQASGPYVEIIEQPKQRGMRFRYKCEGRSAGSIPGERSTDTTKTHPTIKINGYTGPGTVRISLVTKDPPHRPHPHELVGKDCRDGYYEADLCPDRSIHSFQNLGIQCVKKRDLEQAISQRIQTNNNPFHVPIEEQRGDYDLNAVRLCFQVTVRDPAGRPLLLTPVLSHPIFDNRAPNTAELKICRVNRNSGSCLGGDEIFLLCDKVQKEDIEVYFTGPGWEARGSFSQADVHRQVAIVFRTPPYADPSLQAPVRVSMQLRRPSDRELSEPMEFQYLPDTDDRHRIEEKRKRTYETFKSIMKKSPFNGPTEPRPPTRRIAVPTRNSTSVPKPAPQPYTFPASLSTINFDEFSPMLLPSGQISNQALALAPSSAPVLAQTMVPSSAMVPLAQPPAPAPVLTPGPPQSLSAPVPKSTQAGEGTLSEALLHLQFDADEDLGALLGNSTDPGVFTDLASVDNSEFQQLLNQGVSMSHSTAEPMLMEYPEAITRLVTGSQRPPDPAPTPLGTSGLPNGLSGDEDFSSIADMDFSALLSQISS

For at least one entry, the source does not settle the construct or the ends of the probe. Where cells or extracts were used, other partners may take part. For part of these data: At least one verdict rests on a figure or table, not on a statement of the authors.

With “GGAAGGTCTAGGAGACCCCCTAAGATCCCA (double strand) [mouse c-fos promoter kB probe (-226 to -196)]”, the binding result in data set [1] and in data set [2] was “binds” in each case.

With “AGTTGAGGGGACTTTCCCAGGC (double strand) [NF-kB consensus oligonucleotide]”, the binding result in data set [3] is “binds”.

Source of the values: publication PMC3875526.
